Source: article PMC8580825, “Scaffolding protein CcmM directs multiprotein phase separation in β-carboxysome biogenesis” (Nature Structural & Molecular Biology, 2021)

Molecular target: RbcL8 core complex of Rubisco (Synechococcus elongatus PCC 7942)
Experiment: turbidity assay; M58red (0.75 μM) and RbcL8 (0.25 μM) at 50 mM KCl in the presence of 0.5 μM and 1.0 μM Raf1 dimer; both purified
Settings: remark: other sources report otherwise

binding: binds
B1: Rubisco assembly chaperone Raf1, Q31Q05 1-356 (protein)
chain: MREFTPTTLSEEERQELLGQLRRKEGRWLAWARACQTLLKNGLNPQTLFEATGFEPIQQNQITVAMQVYDSILRQDPPAHVRETYQEWGSDLLYELRELDQEQRSLCAQLALERKLDADQIREVAKATKDFCRLPKQPENFDRHPGDAVAHQCWRLAQERTDLTERSRLIARGLQFAQSAGARALIEALLLDLSGVPSRKPPMLPIYRLETEEDLPRLLPFAGTLPLSSSQIEAIAAVEAEGPFGLVSSPQGQQWLALPGWQAILTAEDPIACLEQIDRLPNAPEGPTEAVVLVVDRADRDWDADHFFLVEQAEGARIQWSPSAIAAPILGRLVLILRPKRVLDEAAIATPWQFEE

Results are given in words; binding and its absence hold for the method and conditions named. A result given as binding can be weak or reduced; the word gives no strength.
